PubChem BioAssay AID1259425 | University of Nebraska Medical Center – 2018
Aim: 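Find knockdowns that reproduce the gene expression pattern seen when KSR1 is lost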 (primary screen). Cells: HCT116 human colon cancer cells. Knock-down reagent: siRNA pool against human genes, 50 nM siRNA. Measured: 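After 50 nM siRNA pool, branched-DNA assay measures six marker transcripts per well, minus blank, normalised to the geometric mean of two housekeeping transcripts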. Scale: BNIP3L mRNA: higher = more BNIP3L transcript after knockdown.
The whole screen tested about 14,000 reagents; shown is a random part of them. Some reagents were tested in more than one well and are listed for each. Not all columns of the deposit are shown. Not stated in the record: the time to read-out.

Depletion of ARHGEF10L (GeneID 55160) resulted in: BNIP3L mRNA, set 1 = 0.104.
After knock-down of EIF4EBP1 (GeneID 1978), the record shows BNIP3L mRNA, set 1 = 0.0824.
Depletion of F11R (GeneID 50848) resulted in: BNIP3L mRNA, set 1 = 0.199.
Against USP9Y (GeneID 8287) the deposit lists BNIP3L mRNA, set 1 = 0.115.
KRIT1 (GeneID 889) scored BNIP3L mRNA, set 1 = 0.0596.
SNU13 (GeneID 4809) scored BNIP3L mRNA, set 1 = 0.171.
Against KIDINS220 (GeneID 57498) the deposit lists BNIP3L mRNA, set 1 = 0.136.
Silencing of ADM2 (GeneID 79924) resulted in: BNIP3L mRNA, set 1 = 0.137.
After knock-down of TBX15 (GeneID 6913), the record shows BNIP3L mRNA, set 1 = 0.093.
GYPC (GeneID 2995) showed BNIP3L mRNA, set 1 = 0.164.
For MYDGF (GeneID 56005), the entry reads BNIP3L mRNA, set 1 = 0.229.
MYF5 (GeneID 4617) scored BNIP3L mRNA, set 1 = 0.159.
Knock-down of SRBD1 (GeneID 55133) gave: BNIP3L mRNA, set 1 = 0.195.
NHERF2 (GeneID 9351) gave BNIP3L mRNA, set 1 = 0.192.
With knock-down of CANX (GeneID 821), the screen gave BNIP3L mRNA, set 1 = 0.317.
Depletion of EXOC6B (GeneID 23233) came out at: BNIP3L mRNA, set 1 = 0.0843.
Knock-down of ELF5 (GeneID 2001) gave: BNIP3L mRNA, set 1 = 0.0769.
Against TUBGCP4 (GeneID 27229) the deposit lists BNIP3L mRNA, set 1 = 0.0962.
With knock-down of FFAR3 (GeneID 2865), the screen gave BNIP3L mRNA, set 1 = 0.119.
For SLAMF1 (GeneID 6504) the deposit lists BNIP3L mRNA, set 1 = 0.0778.
Depletion of SYT13 (GeneID 57586) gave: BNIP3L mRNA, set 1 = 0.101.
ZBTB45 (GeneID 84878) scored BNIP3L mRNA, set 1 = 0.127.
Silencing of SPINK2 (GeneID 6691) resulted in: BNIP3L mRNA, set 1 = 0.0574.
Against TREM1 (GeneID 54210) the deposit lists BNIP3L mRNA, set 1 = 0.085.
After knock-down of CORT (GeneID 1325) the results were BNIP3L mRNA, set 1 = 0.0568.
Depletion of CORT (GeneID 1325) gave: BNIP3L mRNA, set 1 = 0.074.
With knock-down of FCRL2 (GeneID 79368), the record shows BNIP3L mRNA, set 1 = 0.149.
After knock-down of PLA2G2A (GeneID 5320) the results were BNIP3L mRNA, set 1 = 0.118.
With knock-down of GALNT2 (GeneID 2590) the results were BNIP3L mRNA, set 1 = 0.0506.
For CABP1 (GeneID 9478), the values are BNIP3L mRNA, set 1 = 0.0648.
BABAM2 (GeneID 9577) scored BNIP3L mRNA, set 1 = 0.0964.
For HPS3 (GeneID 84343), the values are BNIP3L mRNA, set 1 = 0.387.
After knock-down of FBXO4 (GeneID 26272), the screen gave BNIP3L mRNA, set 1 = 0.084.
Against TMEM222 (GeneID 84065), the values are BNIP3L mRNA, set 1 = 0.336.
For RASSF2 (GeneID 9770), the values are BNIP3L mRNA, set 1 = 0.0602.
Against NUP160 (GeneID 23279), the entry reads BNIP3L mRNA, set 1 = 0.0931.

Entries listed so far whose gene name begins with E or e (3):
EIF4EBP1 (GeneID 1978) — BNIP3L mRNA, set 1 = 0.0824
EXOC6B (GeneID 23233) — BNIP3L mRNA, set 1 = 0.0843
ELF5 (GeneID 2001) — BNIP3L mRNA, set 1 = 0.0769
